Measured values as given in paper PMC9232636, “Insights into the mechanism of action of the arbitrium communication system in SPbeta phages” (Nature Communications, 2022).
“Also recorded” adds a separate entry of the source.

System: aimX-box^Phi
Assay: EMSA, AimR binding to aimX operator
Parameters: species or system phage phi3T
Conditions: 50 mM tris pH8, 250 mM NaCl, repeated independently three times

B1: AimR^SPβ-I: AimR^SPβ receptor without tags (protein)
chain: MELIRIAMKKDLENDNSLMNKWATVAGLKNPNPLYDFLNHDGKTFNEFSSIVNIVKSQYPDREYELMKDYCLNLDVKTKAARSALEYADANMFFEIEDVLIDSMISCSNMKSKEYGKVYKIHRELSNSVITEFEAVKRLGKLNIKTPEMNSFSRLLLLYHYLSTGNFSPMAQLIKQIDLSEISENMYIRNTYQTRVHVLMSNIKLNENSLEECREYSKKALESTNILRFQVFSYLTIGNSLLFSNYELAQENFLKGLSISVQNENYNMIFQQALCFLNNVWRKENKWINFESDSIMDLQEQAHCFINFNENSKAKEVLDKLDLLVHNDNELAMHYYLKGRLEQNKACFYSSIEYFKKSNDKFLIRLPLLELQKMGENQKLLELLLL
- recognition of operator: not the operator for phage phi3T; also recorded: neither recognised the AimR-binding box from phage phi3T
